# In all, about 320,000 compounds went through this assay and about 22,000 (6.9%) were called active. The shares of active, inactive and inconclusive entries below differ from those in the screen. Calls follow the shape of the dose curve; as a rule, active = well fitted inhibition curve with a large enough effect; inconclusive = small, poorly fitted or top-dose-only effect, or another doubt; inactive = no such curve, though single readings can be large or run the other way. A potency beside an inconclusive call is a rough fit, not a confirmed value.
# Assay: Primary qHTS for delayed death inhibitors of the malarial parasite plastid, 96 hour incubation
# Settings: P. falciparum luciferase reporter growth; series mostly up to 28.7 µM
# Outline: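 96 h incubation, 37 C, 5% CO2, of luciferase-reporter P. falciparum-infected RBCs (2% hematocrit, 0.05% parasitemia final) with test compounds; endpoint luminescence.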
# % is scaled to controls: 0 for no effect and ±100 for the full control effect; potency is read from the fitted curve at half-maximal effect.
SMILES,Potency,"activity change, negative = inhibition"
Cc1ccc(C)c(S(=O)(=O)c2c[nH]c(=S)[nH]c2=O)c1,inactive,–
CCOc1ccccc1N1CCN(Cc2cc3c(cc2[N+](=O)[O-])OCO3)CC1,"inconclusive: 18.5 µM [inhibitor, single point]",–
Cc1[nH]c2ccc(OC(F)(F)F)cc2c1CCNCc1ccc(Cl)cc1,"inconclusive: 13.1 µM [inhibitor, partial curve, poor fit]",–
O=C(NCCc1ccccc1)c1ccc(CS(=O)(=O)c2ccc(Br)cc2)o1,active: 4.15 µM,–
Cc1ccccc1NC(=O)C(=O)NCCCN1CCOCC1,"inconclusive: 1.85 µM [inhibitor, partial curve, poor fit]",–
Cc1ccc(S(=O)(=O)NCc2n[nH]c(=S)n2C)cc1,"inconclusive: 1.65 µM [inhibitor, partial curve, poor fit]",–
CC1CCN(C(=O)C2CCCN(S(C)(=O)=O)C2)CC1 (stereo not given),"inconclusive: 4.65 µM [inhibitor, partial curve, poor fit]",–
Cc1ccc(C2(c3ccccc3)NC(=O)N(CC(=O)NC3CCCCC3)C2=O)cc1C (stereo not given),"inconclusive: 10.4 µM [inhibitor, partial curve]",–
C=CCOc1ccc(/C=N/N2C(=O)C(CC(=O)Nc3ccc(F)cc3F)SC2=NC)cc1 (stereo not given),"inconclusive: 18.5 µM [inhibitor, single point]",–
CN(C)/C=N/C(=S)Nc1ccc(Br)cc1F,"inconclusive: 0.0047 µM [inhibitor, full curve, poor fit]",–
CN1CCN(c2nc(-c3ccc(Cl)cc3Cl)nc3ccccc23)CC1,"inconclusive: 11.7 µM [inhibitor, partial curve]",–
COc1ccc(S(=O)(=O)N2CCc3ccccc32)cc1C(=O)NCc1ccco1,"inconclusive: 14.7 µM [inhibitor, partial curve, poor fit]",–
CC(C)=CCN1CCN(Cc2ccoc2)CC1CCO (stereo not given),"inconclusive: 18.5 µM [inhibitor, single point]",–
C/C(CC(=O)Nc1cc(C)ccn1)=N\NC(=O)c1cccc(F)c1,inactive,–
CCc1cccc(NC(=O)Cc2cn(C)c3ccccc23)c1,"inconclusive: 1.04 µM [inhibitor, partial curve, poor fit]",–
Cc1ccc(C(=O)NCC2CCCN2S(=O)(=O)c2ccc(C)cc2)cc1 (stereo not given),active: 10.4 µM,–
S=C(Nc1cccnc1)NC1CCCC1,"inconclusive: 13.1 µM [inhibitor, single point]",–
Cc1cc(S(=O)(=O)N(Cc2cccs2)Cc2ccccc2F)ccc1-n1cnnn1,"inconclusive: 18.5 µM [inhibitor, single point]",–
Cn1c(SCC(=O)NCc2cccs2)nnc1-c1ccc(S(=O)(=O)N2CCCC2)cc1,active: 8.28 µM,–
O=C(OCC(=O)c1ccc(S(=O)(=O)N2CCCC2)cc1)C1=COCCO1,"inconclusive: 16.5 µM [inhibitor, single point]",–
O=C(CSc1nnc(-c2ccc(C(F)(F)F)cn2)s1)c1ccccc1,inactive,–
COCCn1c(C)cc(C(=O)COC(=O)c2[nH]c(C)c(C(C)=O)c2C)c1C,"inconclusive: 8.28 µM [inhibitor, partial curve]",–
CCOC(=O)c1c(C)nc2c3ccccc3ccn12,inactive,–
Cc1ccnc2nc(C(=O)Nc3ccc(S(=O)(=O)N4CCCC4)cc3)nn12,"inconclusive: 4.15 µM [inhibitor, single point]",–

SMILES,Potency,"activity change, negative = inhibition"
Nc1ccc(N2CCN(Cc3ccccc3Cl)CC2)c(Cl)c1,"inconclusive: 2.33 µM [inhibitor, partial curve]",–
O=c1[nH]c(C2CCCN(S(=O)(=O)c3ccccc3)C2)nc2c1nnn2Cc1cccc(Cl)c1 (stereo not given),"inconclusive: 10.4 µM [inhibitor, single point]",–
CCOC(=O)CNC1CC(=O)N(c2ccc(Br)cc2)C1=O (stereo not given),inactive,–
Cc1c(/C=N\NC(=O)c2c[nH]c3ccccc23)cnn1C,–,inactive: 14% [at 5.75 µM]
CC1CCCCN1C(=O)CSCC(=O)Nc1nc(-c2cccs2)cs1 (stereo not given),"inconclusive: 18.5 µM [inhibitor, single point]",–
CSc1cccc(CN2CCCC(CO)(Cc3cccc(Cl)c3)C2)c1 (stereo not given),"inconclusive: 4.15 µM [inhibitor, partial curve, poor fit]",–
O=[N+]([O-])c1ccc(OCCCCCN2CCOCC2)cc1,"inconclusive: 18.5 µM [inhibitor, single point]",–
Cc1ncc(CO)c(/C=N/NC(=O)c2ccccc2Br)c1O,"inconclusive: 18.5 µM [inhibitor, single point]",–
CC1(C)Cc2c(cnn2-c2ccccc2)C(=O)/C1=N\NC(=O)c1ccccc1N,"inconclusive: 18.5 µM [inhibitor, single point]",–
Cc1nc(SCC(=O)OCc2ccccc2)c(C#N)c(-c2ccccc2)c1C(=O)Nc1ccccc1,"inconclusive: 14.7 µM [inhibitor, single point]",–
COc1ccc(C2CC(c3ccccc3)=NN2C(=O)CSc2ncccn2)cc1 (stereo not given),"inconclusive: 5.22 µM [inhibitor, partial curve, poor fit]",–
O=C(CCC(=O)Nc1ccc(F)cc1)N/N=C/c1cccs1,"inconclusive: 13.1 µM [inhibitor, single point]",–
Cc1ccc2oc(C(=O)NCCC3CCCCO3)c(C)c2c1 (stereo not given),"inconclusive: 10.4 µM [inhibitor, partial curve]",–
CCN(CC)S(=O)(=O)c1ccc2nc(CCl)[nH]c2c1,inactive,–
COc1ccc(NC(=O)Nc2cc(C)ccc2OC)cc1,inactive,–
Cc1ccc(C2CC(=O)c3cnn(-c4nc(C)cc(C)n4)c3C2)cc1 (stereo not given),"inconclusive: 16.5 µM [inhibitor, partial curve, poor fit]",–
COc1ccc(C(=O)NC(C)Cc2cnccn2)cc1OC1CCN(C(C)C)CC1 (stereo not given),"inconclusive: 13.1 µM [inhibitor, single point]",–
CCOC(=O)Nc1ccc(NCc2ccc(F)cc2)nc1N,active: 6.75 µM,–
Cc1cccc(NS(=O)(=O)c2ccc(C(=O)NCC(c3ccco3)N(C)C)cc2)c1C (stereo not given),inactive,–
CN(C)/C=C/C(=O)/C=C/c1ccc(Cl)cc1Cl,inactive,–
Cc1ccc2ncnc(Nc3ccc(C)c(C)c3)c2c1,"inconclusive: 9.28 µM [inhibitor, partial curve, poor fit]",–
c1ccc(-c2nnsc2-c2ncc[nH]2)cc1,inactive,–
O=C(CN1C2=NCCCN2c2ccccc21)c1cccc(Br)c1,"inconclusive: 18.5 µM [inhibitor, single point]",–
COc1ccc2cc3cc(C(=O)Nc4ccc5c(c4)OCO5)oc3nc2c1,"inconclusive: 0.415 µM [inhibitor, partial curve, poor fit]",–

# One compound at a time, as listed above. Order of values: Potency | activity change, negative = inhibition
# Cc1nc(SCC(=O)OCc2ccccc2)c(C#N)c(-c2ccccc2)c1C(=O)Nc1ccccc1 in the list: inconclusive: 14.7 µM [inhibitor, single point] | –
# CCOC(=O)CNC1CC(=O)N(c2ccc(Br)cc2)C1=O (stereo not given) in the list: inactive | –
# CN(C)/C=C/C(=O)/C=C/c1ccc(Cl)cc1Cl in the list: inactive | –
# CSc1cccc(CN2CCCC(CO)(Cc3cccc(Cl)c3)C2)c1 (stereo not given) in the list: inconclusive: 4.15 µM [inhibitor, partial curve, poor fit] | –

# (further entries)

SMILES,Potency,"activity change, negative = inhibition"
N=c1c2ccccc2nnn1-c1ccc(C(F)(F)F)cc1,"inconclusive: 0.415 µM [inhibitor, full curve, poor fit]",–
COc1cc(OC)c(OC)cc1/C=N/NC(=O)C[n+]1ccccc1,inactive,–
Cc1cc(C(F)F)nn1CC(=O)NCc1ccccc1F,inactive,–
COc1cccc(/C=C2\N=C(c3c(-c4ccccc4)noc3C)OC2=O)c1,inactive,–
CC(C)Nc1nnc(SCC(=O)/C=C2\N(C)c3ccccc3C2(C)C)s1,"inconclusive: 18.5 µM [inhibitor, single point]",–
Cc1ccsc1C(=O)C1CCCN(Cc2cccn2-c2ccc(Cl)cn2)C1 (stereo not given),"inconclusive: 18.5 µM [inhibitor, single point]",–
Cc1ccc(C)c(NC(=S)NCCc2ccc(F)cc2)c1,"inconclusive: 11.7 µM [inhibitor, single point]",–
CC(C)(C)OC(=O)NCCCCCc1cn(CC(=O)NCCCCCCCCCCC(=O)N2CCN(C(=O)OC(C)(C)C)CC2)nn1,"inconclusive: 0.262 µM [inhibitor, full curve, poor fit]",–
Cn1c(C(C)(O)C(O)c2ccccc2)nc2ccccc21 (stereo not given),inactive,–
CC(=O)c1cc2c(cc1NS(=O)(=O)c1ccccc1Br)OCO2,inactive,–
CCN(CC)S(=O)(=O)c1ccc(NC(=O)CSc2nnc(-c3cccc(OC)c3)n2C)cc1,"inconclusive: 18.5 µM [inhibitor, single point]",–
CCOC(=O)c1c(NC(=O)CN2CCCc3ccccc32)sc(C)c1C,"inconclusive: 18.5 µM [inhibitor, single point]",–
Cc1nnc(SCC(=O)N(C(C)C)C(C)C)[nH]c1=O,inactive,–
COc1cccc(C(=O)C2CCCN(Cc3ccon3)C2)c1 (stereo not given),"inconclusive: 10.4 µM [inhibitor, single point]",–
Cc1ccc2c(c1)N(C(=O)CCC(=O)Nc1ccccc1Br)CC(C)O2 (stereo not given),"inconclusive: 4.15 µM [inhibitor, single point]",–
CC1(C)CC(=O)N(c2ccc(Cl)c(Cl)c2)C(=O)C1,inactive,–
Cc1ccc(CNC(=O)C2C3C=CC4(CN(Cc5cccnc5)C(=O)C24)O3)cc1 (stereo not given),"inconclusive: 0.208 µM [inhibitor, full curve, poor fit]",–
COCCOC(=O)C1=C(C)NC(=O)NC1c1ccc(Cl)cc1 (stereo not given),inactive,–
Cc1cc(C)n(CC(=O)NC2CCCc3c2cnn3-c2ccccc2F)n1 (stereo not given),"inconclusive: 13.1 µM [inhibitor, partial curve, poor fit]",–
CCCCn1c(=O)[nH]c(=O)c2c1nc(CN(C)Cc1cccc(OC)c1OC)n2CCC,"inconclusive: 7.38 µM [inhibitor, partial curve]",–
CC(C)n1cnnc1SCC(=O)Nc1ccc(Br)cc1F,inactive,–
COc1cc(-c2cc(C(=O)Nc3ccc(S(=O)(=O)Nc4ncccn4)cc3)c3ccccc3n2)cc(OC)c1OC,active: 7.38 µM,–
